# Measured values from US7235557B2, “Compounds and their uses” (MGI GP, Inc., priority 2000, dated 2007).
# Assay: Focal cerebral ischemia study: arterial blood gases, MABP and cortical blood flow
# Assay type: in vivo, male Long-Evans rats
# Details: for pH: arterial blood 30 min after MCA occlusion; for MABP Ischemia: average during occlusion; for relative blood flow in the right parietal cortex, of the baseline: during MCA and CCA occlusion, laser Doppler; for MABP Steady State: just prior to occlusion
smiles,measurement,setting,value
"O=C1NCCc2c(OCCCCN3CCCCC3)cccc21 [DPQ, 3,4-dihydro-5-[4-(1-piperidinyl)-butoxy]-1(2H)-isoquinolinone]",pH,5 mg/kg,7.36 ± 0.02
same,MABP Ischemia,5 mg/kg,91 ± 12 mm Hg
same,"relative blood flow in the right parietal cortex, of the baseline",5 mg/kg,18.7±7.4%
same,MABP Steady State,5 mg/kg,78 ± 5 mm Hg
same,pH,10 mg/kg,7.34 ± 0.03
same,MABP Ischemia,10 mg/kg,90 ± 14 mm Hg
same,"relative blood flow in the right parietal cortex, of the baseline",10 mg/kg,21.4±7.7%
same,MABP Steady State,10 mg/kg,80 ± 9 mm Hg
same,pH,20 mg/kg,7.35 ± 0.23
same,MABP Ischemia,20 mg/kg,91 ± 12 mm Hg
same,MABP Steady State,20 mg/kg,79 ± 10 mm Hg
same,pH,40 mg/kg,7.33 ± 0.24
same,MABP Ischemia,40 mg/kg,88 ± 12 mm Hg
same,"relative blood flow in the right parietal cortex, of the baseline",40 mg/kg,19.3±11.2%
same,MABP Steady State,40 mg/kg,78 ± 4 mm Hg
